Data: article PMC10023571, “EGOC inhibits TOROID polymerization by structurally activating TORC1” (Nature Structural & Molecular Biology, 2023)
No constants are given. Whether binding was seen depends on the method and setting. Some results given as binding are weak or reduced against the parent protein; the word gives no strength. Sequences can lack the tags named with a protein.

T1: Ego1(∆1-111:His6) (S. cerevisiae) (UniProt Q02205)
T1 sequence: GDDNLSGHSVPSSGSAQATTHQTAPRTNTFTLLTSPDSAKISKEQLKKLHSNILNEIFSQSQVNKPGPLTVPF


Biological target: T1, Ego1(∆1-111:His6) (S. cerevisiae)
Test: SEC; EGOC components co-expressed in E. coli, Ni-NTA by the His6 on Ego1, then Superdex GF200 Increase in 50 mM MES-NaOH pH 6.0, 300 mM NaCl, 0.15% CHAPS, 1 mM MgCl2, 0.5 mM DTT; fractions on Coomassie-stained SDS-PAGE; both purified

binding | Binder
binds | Gtr1^WT (protein, UniProt Q00582 1-310) MSSNNRKKLLLMGRSGSGKSSMRSIIFSNYSAFDTRRLGATIDVEHSHLRFLGNMTLNLWDCGGQDVFMENYFTKQKDHIFQMVQVLIHVFDVESTEVLKDIEIFAKALKQLRKYSPDAKIFVLLHKMDLVQLDKREELFQIMMKNLSETSSEFGFPNLIGFPTSIWDESLYKAWSQIVCSLIPNMSNHQSNLKKFKEIMNALEIILFERTTFLVICSSNGENSNENHDSSDNNNVLLDPKRFEKISNIMKNFKQSCTKLKSGFKTLILNNNIYVSELSSNMVCFIVLKDMNIPQELVLENIKKAKEFFQ
binds | Ego2(∆1-21) (domain or fragment, UniProt Q3E830 22-75) IESTGVGSQRIEDIGDLSKVTLDAEGFAQVQGDSLLVHLYKRNDITLAVYTSAQ
binds | Gtr2^WT (protein, UniProt P53290 1-341) MSLEATDSKAMVLLMGVRRCGKSSICKVVFHNMQPLDTLYLESTSNPSLEHFSTLIDLAVMELPGQLNYFEPSYDSERLFKSVGALVYVIDSQDEYINAITNLAMIIEYAYKVNPSINIEVLIHKVDGLSEDFKVDAQRDIMQRTGEELLELGLDGVQVSFYLTSIFDHSIYEAFSRIVQKLIPELSFLENMLDNLIQHSKIEKAFLFDVNSKIYVSTDSNPVDIQMYEVCSEFIDVTIDLFDLYKAPVLRNSQKSSDKDNVINPRNELQNVSQLANGVIIYLRQMIRGLALVAIIRPNGTDMESCLTVADYNIDIFKKGLEDIWANARASQAKNSIEDDV
